# Results reported in paper PMC4466674.
# Chains of the proteins cited; added tags and fusions are not shown.
# UniProt P06730: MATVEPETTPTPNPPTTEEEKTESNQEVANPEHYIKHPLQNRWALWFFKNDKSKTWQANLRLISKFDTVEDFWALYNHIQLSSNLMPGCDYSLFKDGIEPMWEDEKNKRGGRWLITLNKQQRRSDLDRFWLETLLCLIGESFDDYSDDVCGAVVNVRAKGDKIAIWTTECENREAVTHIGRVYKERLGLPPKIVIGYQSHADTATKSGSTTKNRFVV
# Results are given in words; binding and its absence hold for the method and conditions named. Binding seen in cells or lysates may run through a third protein. Some binding calls cover weakened binding; strength is not graded here. Where a sequence is shown, tags or fusion partners need not be part of it.
# B1: HA-tagged constitutively hypophosphorylated 4E-BP1 (4EBP1-5A) (protein, UniProt Q62622 1-117)
# chain: MSAGSSCSQTPSRAIPTRRVALGDGVQLPPGDYSTAPGGTLFSTAPGGTRIIYDRKFLMECRNAPVAKAPPKDLPTIPGVTAPTSDEPPMQASQSHLHSSPEDKRAGGEESQFEMDI
# Biological target: eukaryotic initiation factor 4E (eIF4E) (human (endogenous in Rh30)) (UniProt P06730)
# Test: pull-down; 7-methyl GTP Sepharose 4B pull-down of eIF4E from lysates of serum-starved Rh30 cells infected with Ad-4EBP1-5A or Ad-GFP, with or without rapamycin (100 ng/ml, 2 h) and IGF-1 (10 ng/ml, 1 h); bound proteins detected by Western blot
binder,measurement,value
B1,binding,binds
